Data reported in patent publication CN114075288A.
Results are given in words; binding and its absence hold for the method and conditions named. Some entries that bind do so weakly or less than the wild type.

Molecular target: T1, 细胞上免疫检查点 (人成熟DC与CD4+ T细胞混合培养物上的PD-L2) (human) (UniProt Q9BQ51)
T1 sequence (looked up): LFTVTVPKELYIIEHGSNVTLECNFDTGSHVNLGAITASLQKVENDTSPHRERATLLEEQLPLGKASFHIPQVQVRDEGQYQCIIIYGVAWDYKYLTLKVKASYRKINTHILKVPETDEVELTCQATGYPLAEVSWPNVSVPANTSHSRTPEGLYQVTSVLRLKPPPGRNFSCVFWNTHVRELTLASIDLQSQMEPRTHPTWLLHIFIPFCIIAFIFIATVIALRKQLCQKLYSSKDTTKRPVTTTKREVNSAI
Assay: flow cytometry on mixed human mature DC and CD4+ T cells

B1: 人源化25G4-1.1抗体 (antibody, human IgG1, kappa, V domains shown)
VH: QVQLVQSGAEVKKPGASVKVSCKASGYTFTTNWMNWVRQAPGQGLEWMGRIDPSDSETHYAQKFQGRVTMTVDKSTNTVYMELSSLRSEDTAVYYCVREGIYGPWFAYWGQGTLVTVSS
VL: DIQMTQSPSSLSASVGDRVTITCRASESVDNYGISLMHWYQQKPGKAPKLLIYRASDLESGVPSRFSGSGSRTDFTLTISSLQPEDFATYYCQQSDKDPPTFGQGTKVEIKR
  binding: binds
